We go through 2 sequences from paper PMC9681727.

Series [1] deals with DNMT1 F631A/F632A (FF/AA, aa 351-1616) + H3Ub2S-S (disulfide-linked ubiquitinated H3 analog). The series is described as follows: pull-down. As to conditions: SAH equimolar, H3Ub2S-S 2-equimolar excess; 5-methylcytosine at position 10 of strand 1; Pull-down: 20 mM Tris-HCl pH 7.5, 150 mM NaCl, 10% glycerol, 0.05% NP-40, 4 °C, 2 h; recombinant protein; protein details: N-terminal His10-HRV3C tag, cleaved; label: 5' biotin on strand 2.

Series [2] deals with DNMT1 WT (aa 351-1616) + H3Ub2S-S (disulfide-linked ubiquitinated H3 analog). The experiment in a line: pull-down. Conditions: SAH equimolar, H3Ub2S-S 2-equimolar excess; 5-methylcytosine at position 10 of strand 1; Pull-down: 20 mM Tris-HCl pH 7.5, 150 mM NaCl, 10% glycerol, 0.05% NP-40, 4 °C, 2 h; recombinant protein; protein details: N-terminal His10-HRV3C tag, cleaved; label: 5' biotin on strand 2.

Series [3] has as its system DNMT1 WT (aa 351-1616) + H3Ub2 (isopeptide-linked ubiquitinated H3 tail). The experiment in a line: cryo-EM (2.5 A, CXXC-ordered). Conditions: covalent Cys1226-5fC complex, SAH, Zn; 5-methylcytosine at position 6 of strand 1; 5-fluorocytosine at position 6 of strand 2; recombinant protein; protein details: N-terminal His10-HRV3C tag, cleaved.
Series [4] shares this test system. The series is described as follows: cryo-EM (2.2 A, CXXC-disordered). Conditions: covalent Cys1226-5fC complex, SAH, Zn; 5-methylcytosine at position 6 of strand 1; 5-fluorocytosine at position 6 of strand 2; recombinant protein; protein details: N-terminal His10-HRV3C tag, cleaved.
Series [5] shares this test system. The series is described as follows: size exclusion chromatography. As to conditions: covalent 5fC complex; 5-methylcytosine at position 6 of strand 1; 5-fluorocytosine at position 6 of strand 2; recombinant protein; protein details: N-terminal His10-HRV3C tag, cleaved. A general note: In gel filtration, larger molecules generally elute earlier.

The exact form of at least one protein or probe is not confirmed. For some assays here: Negatives hold for the conditions tested. For some assays here: At least one verdict rests on a figure or table, not on a statement of the authors.

Consider “CAGGCAATCCGGTAGATCGCA / TTGCGATCTACCGGATTGCCTG [21-bp biotinylated hemimethylated DNA (pull-down)]”, for which the binding result is given as “no binding” in series [1] and “binds” in series [2].
As to “ACTTACGGAAGG (double strand) [DNAmCG/fCG 12-mer (cryo-EM)]”, the binding result in series [3], in series [4] and in series [5] was “binds” each time.
